From paper PMC3407361 come the findings set out here.

Amino acid sequences for entries named in this document (tags omitted). A change or cut given only in a name is not applied to a line headed by its entry. Residues count along the entry.
UniProt P08603, residues 19-1231: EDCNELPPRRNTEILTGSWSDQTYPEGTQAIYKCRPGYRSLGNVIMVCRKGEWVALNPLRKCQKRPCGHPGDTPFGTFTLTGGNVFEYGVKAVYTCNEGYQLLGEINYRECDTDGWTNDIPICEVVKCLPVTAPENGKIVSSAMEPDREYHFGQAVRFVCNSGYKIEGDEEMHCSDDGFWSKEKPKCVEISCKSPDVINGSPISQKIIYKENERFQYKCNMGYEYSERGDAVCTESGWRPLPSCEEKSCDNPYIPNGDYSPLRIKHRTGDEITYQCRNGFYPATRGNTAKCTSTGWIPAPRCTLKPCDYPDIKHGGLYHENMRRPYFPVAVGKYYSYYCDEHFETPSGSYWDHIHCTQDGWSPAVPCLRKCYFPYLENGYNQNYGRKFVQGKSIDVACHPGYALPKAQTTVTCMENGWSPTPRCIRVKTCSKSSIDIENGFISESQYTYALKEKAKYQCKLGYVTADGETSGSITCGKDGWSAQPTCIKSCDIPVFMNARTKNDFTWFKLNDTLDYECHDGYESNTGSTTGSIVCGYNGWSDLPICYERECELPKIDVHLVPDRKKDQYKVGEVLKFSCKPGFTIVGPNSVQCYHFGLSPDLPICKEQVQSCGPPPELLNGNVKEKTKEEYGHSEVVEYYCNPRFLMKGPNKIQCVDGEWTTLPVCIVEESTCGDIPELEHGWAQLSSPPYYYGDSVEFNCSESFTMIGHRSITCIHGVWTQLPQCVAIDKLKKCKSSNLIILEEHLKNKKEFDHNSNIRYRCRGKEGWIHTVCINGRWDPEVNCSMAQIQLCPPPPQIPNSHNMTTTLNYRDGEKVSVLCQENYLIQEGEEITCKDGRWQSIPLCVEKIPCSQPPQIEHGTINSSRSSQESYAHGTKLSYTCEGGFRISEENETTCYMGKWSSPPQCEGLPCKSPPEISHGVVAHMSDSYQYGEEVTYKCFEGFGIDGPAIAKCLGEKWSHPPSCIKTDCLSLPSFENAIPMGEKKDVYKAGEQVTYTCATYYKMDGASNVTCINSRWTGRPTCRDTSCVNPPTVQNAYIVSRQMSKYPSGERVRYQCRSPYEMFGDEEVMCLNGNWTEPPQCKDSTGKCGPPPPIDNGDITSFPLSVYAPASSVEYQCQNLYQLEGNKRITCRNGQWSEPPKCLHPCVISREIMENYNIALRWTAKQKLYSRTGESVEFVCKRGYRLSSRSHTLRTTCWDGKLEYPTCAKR
UniProt P01024: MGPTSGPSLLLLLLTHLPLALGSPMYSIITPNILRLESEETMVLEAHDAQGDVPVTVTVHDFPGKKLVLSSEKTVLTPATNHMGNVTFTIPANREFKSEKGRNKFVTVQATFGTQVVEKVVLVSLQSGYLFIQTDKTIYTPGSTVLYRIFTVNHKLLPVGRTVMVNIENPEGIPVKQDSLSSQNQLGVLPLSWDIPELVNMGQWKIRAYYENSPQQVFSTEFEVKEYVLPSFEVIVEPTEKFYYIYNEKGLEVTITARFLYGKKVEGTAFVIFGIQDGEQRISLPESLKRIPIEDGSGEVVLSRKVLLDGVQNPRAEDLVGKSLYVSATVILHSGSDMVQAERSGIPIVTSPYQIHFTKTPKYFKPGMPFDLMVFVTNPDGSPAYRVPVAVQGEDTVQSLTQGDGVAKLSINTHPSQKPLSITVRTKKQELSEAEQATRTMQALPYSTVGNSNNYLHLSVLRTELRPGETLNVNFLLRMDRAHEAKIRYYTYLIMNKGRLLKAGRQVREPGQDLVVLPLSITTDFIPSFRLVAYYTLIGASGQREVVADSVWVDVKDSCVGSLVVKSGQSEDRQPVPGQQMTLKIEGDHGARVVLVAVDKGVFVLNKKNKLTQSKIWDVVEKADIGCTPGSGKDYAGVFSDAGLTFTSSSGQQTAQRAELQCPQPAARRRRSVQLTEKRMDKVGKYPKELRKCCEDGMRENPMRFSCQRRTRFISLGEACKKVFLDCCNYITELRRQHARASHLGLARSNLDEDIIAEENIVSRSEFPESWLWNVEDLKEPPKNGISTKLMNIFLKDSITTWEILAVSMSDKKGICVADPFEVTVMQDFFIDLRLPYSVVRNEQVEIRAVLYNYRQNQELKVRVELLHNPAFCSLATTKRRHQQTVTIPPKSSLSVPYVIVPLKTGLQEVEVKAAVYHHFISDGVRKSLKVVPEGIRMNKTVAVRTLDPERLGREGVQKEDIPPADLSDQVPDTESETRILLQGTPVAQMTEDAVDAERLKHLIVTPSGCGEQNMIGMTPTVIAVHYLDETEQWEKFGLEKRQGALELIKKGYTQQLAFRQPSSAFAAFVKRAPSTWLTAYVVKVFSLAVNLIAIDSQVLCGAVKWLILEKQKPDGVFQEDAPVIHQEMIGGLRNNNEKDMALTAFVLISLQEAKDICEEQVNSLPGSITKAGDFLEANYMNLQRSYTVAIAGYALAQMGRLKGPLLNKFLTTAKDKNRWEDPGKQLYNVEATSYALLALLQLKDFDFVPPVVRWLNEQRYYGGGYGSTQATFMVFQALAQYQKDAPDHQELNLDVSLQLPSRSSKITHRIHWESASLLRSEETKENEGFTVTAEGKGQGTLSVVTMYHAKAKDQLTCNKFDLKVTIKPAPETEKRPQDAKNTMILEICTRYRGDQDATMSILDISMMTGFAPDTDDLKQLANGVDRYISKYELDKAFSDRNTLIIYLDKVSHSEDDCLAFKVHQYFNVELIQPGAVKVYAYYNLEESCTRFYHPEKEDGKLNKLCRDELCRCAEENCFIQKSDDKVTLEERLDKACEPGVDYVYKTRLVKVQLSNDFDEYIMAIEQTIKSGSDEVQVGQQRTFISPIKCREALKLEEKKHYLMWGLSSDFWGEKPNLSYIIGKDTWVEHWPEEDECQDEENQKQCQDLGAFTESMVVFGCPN

These are yes or no findings as the source states them, for the method shown. Some results given as binding are weak or reduced against the parent protein; the word gives no strength.

In the assay the target is complement factor H (UniProt P08603). The experiment in a line: ELISA; wells coated with 1 ug/mL purified CFH; medium samples with 1,000, 500, 250 or 125 ng/mL wild-type or mutant C3b; detected with HRP-conjugated goat antibodies against C3; arbitrary units; only the target purified. A general note: In an ELISA, binding on a coated surface is turned into a signal by an enzyme label.
Take “recombinant C3b carrying p.Arg161Trp (from UniProt P01024 23-667; P01024 749-1663)”: the binding result is “binds”.

For “recombinant C3b carrying p.Lys65Gln (from UniProt P01024 23-667; P01024 749-1663)”, the binding entry is “binds”.

With “wild-type recombinant C3b (from UniProt P01024 23-667; P01024 749-1663)”, the binding result was “binds”.
